By UniProt entry, the sequences of proteins in these tests, tags left out. Where a name states a change or a piece, a line headed by the entry shows the natural chain unless it says otherwise.
UniProt Q9NPD8: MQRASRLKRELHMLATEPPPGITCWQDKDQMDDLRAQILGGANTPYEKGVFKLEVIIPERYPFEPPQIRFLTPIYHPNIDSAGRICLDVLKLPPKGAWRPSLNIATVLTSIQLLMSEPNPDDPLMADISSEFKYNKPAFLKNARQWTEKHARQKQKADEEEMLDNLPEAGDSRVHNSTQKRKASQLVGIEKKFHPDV

In article PMC3979106 (Structure(London, England:1993), 2014):

Experiments:
[1] = molecular target: T1, Human FANCL RING domain Tyr311Ala (human) (UniProt Q9NW38); assay: SEC; analytical size-exclusion chromatography, Superdex 75 10/300; RING domain and one E2 incubated 1 hr on ice in 0.1 M NaCl, 0.1 M Tris pH 8, 250 μM TCEP; complex read as a peak shift to the left; both purified
T1 sequence: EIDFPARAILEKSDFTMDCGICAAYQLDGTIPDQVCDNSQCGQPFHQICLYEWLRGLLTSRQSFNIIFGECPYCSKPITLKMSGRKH

[2] = molecular target: T2, Human FANCL RING domain (residues 289–375) (human) (UniProt Q9NW38); assay: as above
T2 sequence: T1 sequence with A23Y

[3] = molecular target: T3, Human FANCL RING domain Trp341Ala (human) (UniProt Q9NW38); assay: as above
T3 sequence: T1 sequence with A23Y, W53A

[4] = molecular target: T4, Human FANCL RING domain Ile309Ala (human) (UniProt Q9NW38); assay: as above
T4 sequence: T1 sequence with I21A, A23Y

[5] = molecular target: T2, Human FANCL RING domain (residues 289–375) (human); assay: native gel or EMSA; native gel shift; ∼140 μM FANCL RING domain with 80–100 μM E2, 10 min on ice in 0.1 M NaCl, 0.1 M Tris pH 8, 250 μM TCEP; 4%–12% native PAGE; both purified
[6] = molecular target: T2, Human FANCL RING domain (residues 289–375) (human); assay: SEC; analytical size-exclusion chromatography of FANCL RING domain incubated with an equimolar mix of Ube2T, Ube2D3 and Ube2L3; E2 bands of the shifted peak identified by SDS-PAGE and mass spectrometry; both purified
[7] = molecular target: T2, Human FANCL RING domain (residues 289–375) (human); assay: crystal structure; RING domain (289-375) and Ube2T joined on one chain by a 14-residue linker; sitting drop at 4°C, 1.6 M ammonium sulfate, 0.1 M NaCl, 0.1 M HEPES pH 7.5; 2.4 Å; RING chain X contacts Ube2T chain A, chain Y contacts chain B; both purified

binding [1]: no binding
binding [2]: binds
binding [3]: no binding
binding [4]: no binding
binding [5]: binds
binding [6]: binds
binding [7]: binds
Substance: Human Ube2T (from UniProt Q9NPD8) (enzyme)

Residue numbers refer to the chain shown, from its start. These are yes or no findings as the source states them, for the method shown. For some of these results: A result given as binding can be weak or reduced; the word gives no strength.
